Results reported in patent US12516015B2 (AMALIVE LIMITED, priority 2009, dated 2026).
Read-outs that look alike come from different tables or passages of the source.

In the case of NCCC[C@H](N)C(=O)O.O=C(O)Cc1ccccc1 [L-ornithine phenyl acetate], the “Results (crystalline form)” value (Test 5, Anti-Solvent (IPA) Addition Elevated Temperature, cyclohexanone) is reported as “No Solid”, the “Results (crystalline form)” value (Test 6, Anti-Solvent (IPA) Addition Ambient Temperature, cyclohexanone) is reported as “Form II” and the “Results (crystalline form)” value (Test 7, Anti-Solvent (IPA) Addition (4° C.), cyclohexanone) is reported as “Form II”. The “Results (crystalline form)” value (Test 8, Anti-Solvent (IPA) Addition (−21° C.), cyclohexanone) was “Form II”, the “Results (crystalline form)” value (Test 9, Anti-Solvent (Ethanol) Addition Ambient Temperature, cyclohexanone) was “Form II” and the “Results (crystalline form)” value (Test 10, Anti-Solvent (Ethanol) Addition (4° C.), cyclohexanone) was “Form I”. For the same compound, the “Results (crystalline form)” value (Test 11, Anti-Solvent (Ethanol) Addition (−21° C.), cyclohexanone) was “Form I”, the “Results (crystalline form)” value (Test 16, Anti-Solvent (IPA) Addition Elevated Temperature, ethanol/acetone (50:50)) was “Form II” and the “Results (crystalline form)” value (Test 17, Anti-Solvent (IPA) Addition Ambient Temperature, ethanol/acetone (50:50)) was “Form II”. For the same compound, the “Results (crystalline form)” value (Test 18, Anti-Solvent (IPA) Addition (4° C.), ethanol/acetone (50:50)) was “Form II”, the “Results (crystalline form)” value (Test 19, Anti-Solvent (IPA) Addition (−21° C.), ethanol/acetone (50:50)) was “Form II” and the “Results (crystalline form)” value (Test 20, Anti-Solvent (Ethanol) Addition Ambient Temperature, ethanol/acetone (50:50)) was “Form II”. The “Results (crystalline form)” value (Test 21, Anti-Solvent (Ethanol) Addition (4° C.), ethanol/acetone (50:50)) was “Form I”, the “Results (crystalline form)” value (Test 22, Anti-Solvent (Ethanol) Addition (−21° C.), ethanol/acetone (50:50)) was “Form I” and the “Results (crystalline form)” value (Test 27, Anti-Solvent (IPA) Addition Elevated Temperature, acetic acid) was “Form VI”. For the same compound, the “Results (crystalline form)” value (Test 28, Anti-Solvent (IPA) Addition Ambient Temperature, acetic acid) was “Form IV”, the “Results (crystalline form)” value (Test 29, Anti-Solvent (IPA) Addition (4° C.), acetic acid) was “Form IV” and the “Results (crystalline form)” value (Test 30, Anti-Solvent (IPA) Addition (−21° C.), acetic acid) was “Form IV”. The “Results (crystalline form)” value (Test 31, Anti-Solvent (Ethanol) Addition Ambient Temperature, acetic acid) was “Form IV”, the “Results (crystalline form)” value (Test 32, Anti-Solvent (Ethanol) Addition (4° C.), acetic acid) was “Form IV” and the “Results (crystalline form)” value (Test 33, Anti-Solvent (Ethanol) Addition (−21° C.), acetic acid) was “Form IV”. The “Results (crystalline form)” value (Test 38, Anti-Solvent (IPA) Addition Elevated Temperature, 1-propanol) was “Form II”, the “Results (crystalline form)” value (Test 39, Anti-Solvent (IPA) Addition Ambient Temperature, 1-propanol) was “Form II” and the “Results (crystalline form)” value (Test 40, Anti-Solvent (IPA) Addition (4° C.), 1-propanol) was “Form II”. The “Results (crystalline form)” value (Test 41, Anti-Solvent (IPA) Addition (−21° C.), 1-propanol) was “Form II”, the “Results (crystalline form)” value (Test 42, Anti-Solvent (Ethanol) Addition Ambient Temperature, 1-propanol) was “Form II” and the “Results (crystalline form)” value (Test 43, Anti-Solvent (Ethanol) Addition (4° C.), 1-propanol) was “Form I/II”. The “Results (crystalline form)” value (Test 44, Anti-Solvent (Ethanol) Addition (−21° C.), 1-propanol) was “Form I”, the “Results (crystalline form)” value (Test 49, Anti-Solvent (IPA) Addition Elevated Temperature, dimethylcarbonate) was “Form II” and the “Results (crystalline form)” value (Test 50, Anti-Solvent (IPA) Addition Ambient Temperature, dimethylcarbonate) was “Form II”. The “Results (crystalline form)” value (Test 51, Anti-Solvent (IPA) Addition (4° C.), dimethylcarbonate) was “Form II”, the “Results (crystalline form)” value (Test 52, Anti-Solvent (IPA) Addition (−21° C.), dimethylcarbonate) was “Form II” and the “Results (crystalline form)” value (Test 53, Anti-Solvent (Ethanol) Addition Ambient Temperature, dimethylcarbonate) was “Form II”. The “Results (crystalline form)” value (Test 54, Anti-Solvent (Ethanol) Addition (4° C.), dimethylcarbonate) was “Form I”, the “Results (crystalline form)” value (Test 55, Anti-Solvent (Ethanol) Addition (−21° C.), dimethylcarbonate) was “Form II” and the “Results (crystalline form)” value (Test 60, Anti-Solvent (IPA) Addition Elevated Temperature, NMP) was “Form II”. The “Results (crystalline form)” value (Test 61, Anti-Solvent (IPA) Addition Ambient Temperature, NMP) was “Form II”, the “Results (crystalline form)” value (Test 62, Anti-Solvent (IPA) Addition (4° C.), NMP) was “Form II” and the “Results (crystalline form)” value (Test 63, Anti-Solvent (IPA) Addition (−21° C.), NMP) was “Form II”. The “Results (crystalline form)” value (Test 64, Anti-Solvent (Ethanol) Addition Ambient Temperature, NMP) was “Form II”, the “Results (crystalline form)” value (Test 65, Anti-Solvent (Ethanol) Addition (4° C.), NMP) was “Form I/II” and the “Results (crystalline form)” value (Test 66, Anti-Solvent (Ethanol) Addition (−21° C.), NMP) was “Form II”. For the same compound, the “Results (crystalline form)” value (Test 71, Anti-Solvent (IPA) Addition Elevated Temperature, etOAc/cyclohexane (1:2)) was “Form II”, the “Results (crystalline form)” value (Test 72, Anti-Solvent (IPA) Addition Ambient Temperature, etOAc/cyclohexane (1:2)) was “Form II” and the “Results (crystalline form)” value (Test 73, Anti-Solvent (IPA) Addition (4° C.), etOAc/cyclohexane (1:2)) was “Form II”. The “Results (crystalline form)” value (Test 74, Anti-Solvent (IPA) Addition (−21° C.), etOAc/cyclohexane (1:2)) was “Form II”, the “Results (crystalline form)” value (Test 75, Anti-Solvent (Ethanol) Addition Ambient Temperature, etOAc/cyclohexane (1:2)) was “Form II” and the “Results (crystalline form)” value (Test 76, Anti-Solvent (Ethanol) Addition (4° C.), etOAc/cyclohexane (1:2)) was “Form I”. For the same compound, the “Results (crystalline form)” value (Test 77, Anti-Solvent (Ethanol) Addition (−21° C.), etOAc/cyclohexane (1:2)) was “Form I/II”, the “Results (crystalline form)” value (Test 82, Anti-Solvent (IPA) Addition Elevated Temperature, etOAc/toluene (1:2)) was “Form II” and the “Results (crystalline form)” value (Test 83, Anti-Solvent (IPA) Addition Ambient Temperature, etOAc/toluene (1:2)) was “Form II”. For the same compound, the “Results (crystalline form)” value (Test 84, Anti-Solvent (IPA) Addition (4° C.), etOAc/toluene (1:2)) was “Form II”, the “Results (crystalline form)” value (Test 85, Anti-Solvent (IPA) Addition (−21° C.), etOAc/toluene (1:2)) was “Form II” and the “Results (crystalline form)” value (Test 86, Anti-Solvent (Ethanol) Addition Ambient Temperature, etOAc/toluene (1:2)) was “Form II”. The “Results (crystalline form)” value (Test 87, Anti-Solvent (Ethanol) Addition (4° C.), etOAc/toluene (1:2)) was “Form I”, the “Results (crystalline form)” value (Test 88, Anti-Solvent (Ethanol) Addition (−21° C.), etOAc/toluene (1:2)) was “Form II” and the “Results (crystalline form)” value (Test 93, Anti-Solvent (IPA) Addition Elevated Temperature, IPA/diisopropyl ether (1:2)) was “Form II”. For the same compound, the “Results (crystalline form)” value (Test 94, Anti-Solvent (IPA) Addition Ambient Temperature, IPA/diisopropyl ether (1:2)) was “Form II”, the “Results (crystalline form)” value (Test 95, Anti-Solvent (IPA) Addition (4° C.), IPA/diisopropyl ether (1:2)) was “Form II” and the “Results (crystalline form)” value (Test 96, Anti-Solvent (IPA) Addition (−21° C.), IPA/diisopropyl ether (1:2)) was “Form II”. For the same compound, the “Results (crystalline form)” value (Test 97, Anti-Solvent (Ethanol) Addition Ambient Temperature, IPA/diisopropyl ether (1:2)) was “Form II”, the “Results (crystalline form)” value (Test 98, Anti-Solvent (Ethanol) Addition (4° C.), IPA/diisopropyl ether (1:2)) was “Form I” and the “Results (crystalline form)” value (Test 99, Anti-Solvent (Ethanol) Addition (−21° C.), IPA/diisopropyl ether (1:2)) was “Form I/II”. For the same compound, the “Results (crystalline form)” value (Test 104, Anti-Solvent (IPA) Addition Elevated Temperature, DIPE) was “Form II”, the “Results (crystalline form)” value (Test 105, Anti-Solvent (IPA) Addition Ambient Temperature, DIPE) was “Form II” and the “Results (crystalline form)” value (Test 106, Anti-Solvent (IPA) Addition (4° C.), DIPE) was “Form II”. For the same compound, the “Results (crystalline form)” value (Test 107, Anti-Solvent (IPA) Addition (−21° C.), DIPE) was “Form II”, the “Results (crystalline form)” value (Test 108, Anti-Solvent (Ethanol) Addition Ambient Temperature, DIPE) was “Form II” and the “Results (crystalline form)” value (Test 109, Anti-Solvent (Ethanol) Addition (4° C.), DIPE) was “Form I”. The “Results (crystalline form)” value (Test 110, Anti-Solvent (Ethanol) Addition (−21° C.), DIPE) was “Form II”, the “Results (crystalline form)” value (Test 115, Anti-Solvent (IPA) Addition Elevated Temperature, nitromethane/water (20%)) was “No Solid” and the “Results (crystalline form)” value (Test 116, Anti-Solvent (IPA) Addition Ambient Temperature, nitromethane/water (20%)) was “Form II”. For the same compound, the “Results (crystalline form)” value (Test 117, Anti-Solvent (IPA) Addition (4° C.), nitromethane/water (20%)) was “Form II”, the “Results (crystalline form)” value (Test 118, Anti-Solvent (IPA) Addition (−21° C.), nitromethane/water (20%)) was “Form II” and the “Results (crystalline form)” value (Test 119, Anti-Solvent (Ethanol) Addition Ambient Temperature, nitromethane/water (20%)) was “Form II”. For the same compound, the “Results (crystalline form)” value (Test 120, Anti-Solvent (Ethanol) Addition (4° C.), nitromethane/water (20%)) was “Form I”, the “Results (crystalline form)” value (Test 121, Anti-Solvent (Ethanol) Addition (−21° C.), nitromethane/water (20%)) was “Form I/II” and the “Results (crystalline form)” value (Test 126, Anti-Solvent (IPA) Addition Elevated Temperature, acetone/water (20%)) was “Form II”. For the same compound, the “Results (crystalline form)” value (Test 127, Anti-Solvent (IPA) Addition Ambient Temperature, acetone/water (20%)) was “Form II”, the “Results (crystalline form)” value (Test 128, Anti-Solvent (IPA) Addition (4° C.), acetone/water (20%)) was “Form II” and the “Results (crystalline form)” value (Test 129, Anti-Solvent (IPA) Addition (−21° C.), acetone/water (20%)) was “Form II”. For the same compound, the “Results (crystalline form)” value (Test 130, Anti-Solvent (Ethanol) Addition Ambient Temperature, acetone/water (20%)) was “Form II”, the “Results (crystalline form)” value (Test 131, Anti-Solvent (Ethanol) Addition (4° C.), acetone/water (20%)) was “Form I” and the “Results (crystalline form)” value (Test 132, Anti-Solvent (Ethanol) Addition (−21° C.), acetone/water (20%)) was “Form II”. The “Results (crystalline form)” value (Test 137, Anti-Solvent (IPA) Addition Elevated Temperature, 1,4 dioxane/water (20%)) was “Form II”, the “Results (crystalline form)” value (Test 138, Anti-Solvent (IPA) Addition Ambient Temperature, 1,4 dioxane/water (20%)) was “Form II” and the “Results (crystalline form)” value (Test 139, Anti-Solvent (IPA) Addition (4° C.), 1,4 dioxane/water (20%)) was “Form II”. For the same compound, the “Results (crystalline form)” value (Test 140, Anti-Solvent (IPA) Addition (−21° C.), 1,4 dioxane/water (20%)) was “Form II”, the “Results (crystalline form)” value (Test 141, Anti-Solvent (Ethanol) Addition Ambient Temperature, 1,4 dioxane/water (20%)) was “Form II” and the “Results (crystalline form)” value (Test 142, Anti-Solvent (Ethanol) Addition (4° C.), 1,4 dioxane/water (20%)) was “Form I”. The “Results (crystalline form)” value (Test 143, Anti-Solvent (Ethanol) Addition (−21° C.), 1,4 dioxane/water (20%)) was “Form II”.
